Some of the results follow. These are further read-outs of the screen, such as a control signal, another cell line or another target. No call is given for them. Most of these compounds were active or inconclusive in the main read-out, so they are no random draw. Potencies come from curve fits of mixed quality, noted in brackets.

The AC50 is the concentration at which the activity in the assay is half-maximal.

This assay is described as follows: Cell signaling CRE-BLA (Fsk stim). The conditions noted are these: CHO CRE-bla reporter (cAMP response element driving beta-lactamase), forskolin EC10, beta-lactamase ratio; measured here: 460 nm blue channel. In a few lines:
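AC50 values, positive or negative, reflect shifts in EC10 NKH 477-induced CRE-bla reporter activity in CHO cells. Incubation lasted 3 h at 37 °C before CCF4 substrate (2 h, room temperature) and ratiometric 460/530 nm reading.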
Regarding `COc1cc(OC)cc(C(=O)OCn2nnc3ccccc3c2=O)c1`, the AC50 is 10 µM [rising, partial curve].

In the case of `COc1cccc(-c2ccc3ncnc(NCc4ccc(OC)cc4OC)c3c2)c1`, the AC50 was 3.98 µM [rising, full curve].

On to `O=C(CCCc1ccccc1)NC1CCSC1=O` (centres undefined), for which the half-maximal activity concentration (AC50) was 0.794 µM [rising, single point].

`O=C(Nc1ccc(N2CCCC2)cc1)c1ccc(Br)o1`: the AC50 was 3.98 µM [falling, partial curve].

As to `Cc1cnc(CNc2ncnc3ccc(-c4ccccc4C(F)(F)F)cc23)cn1`, the AC50 was 10 µM [rising, partial curve].

For the compound `O=C(Nn1c(=O)[nH]c2ccsc2c1=O)c1ccccc1`, the AC50 is 0.0501 µM [rising, full curve].

For the compound `COc1ccc(-c2nnc3c4ccccc4c(C)nn23)cc1S(=O)(=O)N1CCN(CCO)CC1`, the concentration at half-maximal activity (AC50) is 10 µM [rising, partial curve].

As for `Cc1nc2cnc(OCc3ccccc3)nc2n(CCc2ccccc2)c1=O`, the AC50 is 10 µM [rising, partial curve].

On to `CC(C)(Oc1ccc(Cl)cc1)C(=O)O`, for which the concentration at half-maximal activity (AC50) is 10 µM [falling, full curve, poor fit].

Turning to `CCOC(=O)C(Sc1nnc2c3ccccc3n(CC)c2n1)C(=O)OCC`, the AC50 is 3.16 µM [rising, full curve].

On to `CCC(C)c1ccc2oc(-c3ccc(NC(=O)c4ncn[nH]4)cc3)nc2c1` (centres undefined), for which the AC50 was 2.51 µM [falling, full curve].

As for `CN1CCc2ccccc2C1C1CCNCC1` (centres undefined), the AC50 was 3.16 µM [falling, single point].

In the case of `COC(=O)c1ccc(NCC(=O)c2ccccc2)cc1`, the AC50 is 0.398 µM [falling, full curve].

In the case of `CCC(C)n1[nH]c(=O)c2c(C)cc(C)nc21` (centres undefined), the half-maximal activity concentration (AC50) was 12.6 µM [rising, partial curve].

For `CC(CN1CCOCC1)C(=O)O` (centres undefined), the AC50 was 10 µM [falling, partial curve].

With `CCOC(=O)CSc1nc2c(c(=O)[nH]c(=O)n2C)n1CCCc1ccccc1`, the AC50 was 2.51 µM [rising, single point].

For the compound `CCn1c(SCC(=O)Nc2ccccc2C(=O)OC)nnc1-c1ccoc1C`, the concentration at half-maximal activity (AC50) is 15.8 µM [rising, single point].

For `COC(=O)[C@H](C)NC(=O)NC1CCCc2ccccc21` (some centres undefined), the AC50 was 0.0794 µM [falling, full curve].

For `O=C(CSc1nc2ccccc2c(=O)[nH]1)c1cccs1`, the AC50 is 12.6 µM [rising, partial curve].

`COc1ccc(Cl)cc1NC(=O)CCn1cnc2ccccc2c1=O`: the AC50 is 15.8 µM [rising, partial curve, poor fit].

Regarding `COc1ccc(-n2c(=O)c(-c3ccc(F)cc3)nc3cnc(N4CCNCC4)nc32)cc1`, the AC50 was 6.31 µM [rising, partial curve].

On to `CN(C)c1ncc2nc(-c3ccccc3)c(=O)n(Cc3cccs3)c2n1`, for which the half-maximal activity concentration (AC50) is 3.16 µM [rising, full curve].

In the case of `CC(C)CCNC(=O)CCn1nc(-c2ccccc2)ccc1=O`, the concentration at half-maximal activity (AC50) was 25.1 µM [rising, single point].

Consider `COC(=O)c1ccc(Nc2cc(C)nc3nc(C)nn23)cc1`, for which the AC50 was 7.94 µM [rising, partial curve].

For `CCOC(=O)CCCNC(=O)COc1ccccc1C#N`, the AC50 was 5.01 µM [falling, single point].

With `C=C1C(C(=O)N2CCN(C)CC2)C1C(=O)N1CCN(C)CC1` (centres undefined), the half-maximal activity concentration (AC50) was 0.398 µM [falling, partial curve].

Take `CC1CCCCN1c1nc(-c2ccncc2)nc2ccccc12` (centres undefined): the AC50 is 15.8 µM [rising, partial curve].

Regarding `COc1ccc(CCn2c(N)c(C#N)c3nc4ccccc4nc32)cc1OC`, the AC50 was 12.6 µM [rising, partial curve].

For `CC(=O)Nc1ccc(NC(=O)Cn2cc3c(n2)CCC(C)C3)cc1` (centres undefined), the AC50 is 25.1 µM [rising, single point].

In the case of `CCOC(=O)C1=C(CN2CCC(C)CC2)NC(=O)NC1c1ccc(Cl)cc1` (centres undefined), the AC50 was 10 µM [rising, partial curve].

In the case of `CCCC(=O)Nc1sc(C(=O)OC)c(C)c1C(N)=O`, the half-maximal activity concentration (AC50) is 10 µM [rising, partial curve].

For `CCOC(=O)c1ccc(NC(=O)N2CCN(CCc3ccccc3)CC2)cc1`, the AC50 is 12.6 µM [falling, partial curve, poor fit].

On to `Cc1cc(C)nc(SCC(=O)Nc2ncc3c(n2)CCCC3=O)n1`, for which the AC50 was 12.6 µM [rising, single point].

As to `COc1ccc(Oc2ncc3nc(-c4ccc(F)cc4)c(=O)n(C[C@H]4CCCO4)c3n2)cc1`, the AC50 was 12.6 µM [rising, single point].

In the case of `CCN(CC(=O)Nc1c(C(=O)OC)[nH]c2ccc(Cl)cc12)c1ccc2c(c1)OCO2`, the AC50 was 15.8 µM [falling, single point].

For `CCn1c(=N)n(CC(=O)c2cccc(OC)c2)c2ccccc21`, the AC50 is 10 µM [rising, partial curve].

As for `CCCOC(=O)C1=C(C)NC2=C(C(=O)CCC2)C1c1cccc(OC)c1OC` (centres undefined), the half-maximal activity concentration (AC50) was 10 µM [rising, partial curve].

Turning to `COc1ccc(N2CCCn3c2nc2c3c(=O)n(Cc3ccccc3F)c(=O)n2C)c(OC)c1`, the AC50 is 15.8 µM [falling, single point].

In the case of `CCN(C(=O)COc1cc(=O)n(CC)c2ccccc12)c1cccc(Cl)c1`, the AC50 is 7.94 µM [rising, partial curve].

With `CCn1nc(NC(=O)c2ccccn2)c2cc3cccc(C)c3nc21`, the AC50 is 1.58 µM [rising, partial curve].

Turning to `COc1ccc(-c2ccc(=N)n(CCCC(=O)O)n2)cc1`, the AC50 was 20 µM [falling, single point].

`O=S1(=O)C=C(SCCN2CCCCC2)c2ccccc21`: the AC50 was 0.00398 µM [falling, full curve, poor fit].

As to `CCOCCCn1c(=N)c(C(=O)NCc2ccc3c(c2)OCO3)cc2c(=O)n3ccccc3nc21`, the AC50 is 0.251 µM [rising, partial curve].

With `CN(C)c1nc(OCCOC(=O)c2ccccc2)nc(N(C)C)n1`, the AC50 was 5.01 µM [rising, partial curve].

Take `CCOC(=O)c1c(C)[nH]c(C(=O)COC(=O)CSCC(=O)N(CC)CC)c1C`: the AC50 was 10 µM [rising, single point].

Turning to `CN1CCN(C(=O)c2cc3nc(-c4ccc(F)cc4)cc(C(F)(F)F)n3n2)CC1`, the AC50 was 12.6 µM [rising, single point].

Regarding `Cc1ccccc1-c1cc(Nc2ccccc2)ncn1`, the AC50 is 2.51 µM [rising, full curve].

Turning to `CCC(C)NC(=O)CCNS(=O)(=O)c1ccc(Br)cc1` (centres undefined), the AC50 is 3.98 µM [rising, partial curve].

As for `COc1ccccc1-c1cc(NCc2cccnc2)ncn1`, the AC50 is 10 µM [rising, partial curve].

Consider `COc1ccc(C2c3sc(=O)[nH]c3SC3C4CCC(C4)C23)cc1` (centres undefined), for which the AC50 is 3.16 µM [rising, partial curve].

Take `Cc1sc2nc(SCC(=O)c3cc(C)n(CC4CCCO4)c3C)n(C(C)C)c(=O)c2c1C` (centres undefined): the AC50 is 10 µM [rising, partial curve].

Turning to `N#CCSc1nnc(COc2cccc3ccccc23)n1-c1cccc(Cl)c1`, the AC50 was 31.6 µM [falling, single point].

As for `COc1ccc(S(=O)(=O)Cc2ccc(C(=O)NCCCN(C)c3ccccc3)o2)cc1`, the concentration at half-maximal activity (AC50) is 10 µM [rising, partial curve, poor fit].

On to `CCOC(=O)c1cccc(NC(=O)c2cc3sccc3n2C)c1`, for which the AC50 is 25.1 µM [falling, single point].

For the compound `CCCCNC(=O)c1cc2c(=O)n3cccc(C)c3nc2n(CCN2CCOCC2)c1=N`, the half-maximal activity concentration (AC50) is 12.6 µM [rising, partial curve].

`CN(C)C(=O)c1ccc(-c2nc(NCc3cccs3)c3ccccc3n2)cc1`: the AC50 is 2 µM [rising, full curve].

For the compound `CC(C)n1c(SCC(=O)Nc2ccccc2N2CCCCC2)nc2c1c(=O)n(C)c(=O)n2C`, the AC50 was 1 µM [rising, full curve].

For `CN(C)C(=O)c1c(-c2ccccc2)oc2ccc(O)cc12`, the AC50 is 0.0631 µM [falling, single point].

On to `COc1ccc(-c2nc3cnc(N(C)C)nc3n(C3CC3)c2=O)cc1`, for which the half-maximal activity concentration (AC50) is 7.94 µM [rising, partial curve].

Take `CCCOc1ccc(C2/C(=C(/O)c3ccc(F)cc3)C(=O)C(=O)N2CCCN(C)C)cc1` (centres undefined): the AC50 was 10 µM [falling, partial curve].

As to `Cc1nc(C)c(-c2csc(Nc3cccnc3)n2)s1`, the AC50 was 7.94 µM [rising, partial curve].

Take `COc1cc2c(cc1OC)CN(CC(=O)NC(=O)NCc1ccco1)CC2`: the concentration at half-maximal activity (AC50) is 25.1 µM [rising, single point].

As to `COc1cc(-c2nc(Cc3ccccc3Cl)no2)cc(OC)c1OC`, the AC50 was 7.94 µM [rising, partial curve].

Take `N#Cc1nc(COc2ccc(-c3ccccc3)cc2)oc1NCCCN1CCOCC1`: the half-maximal activity concentration (AC50) is 25.1 µM [rising, single point].

On to `COc1cc(-c2nc(S(=O)(=O)c3ccccc3)c(N3CCOCC3)o2)cc(OC)c1OC`, for which the AC50 is 2.51 µM [rising, full curve].

`Cc1cccc(NC2=NCC(=O)N2Cc2ccccc2)c1`: the AC50 was 15.8 µM [falling, partial curve].

For `COc1ccc(-c2cc(C(=O)OC3CCOC3=O)c3ccccc3n2)cc1OC` (centres undefined), the AC50 is 10 µM [rising, partial curve].

Regarding `COCCNc1nc(C)nc2c1nc(-c1ccccc1)n2C1CCN(Cc2ccccc2)C1` (centres undefined), the AC50 is 10 µM [rising, partial curve].

Consider `CCOC(=O)N1CCN(c2nc3ccccc3nc2C(C#N)S(=O)(=O)c2ccc(C)cc2)CC1` (centres undefined), for which the AC50 was 5.01 µM [rising, partial curve].

Values taken from PubChem BioAssay AID662 (National Center for Advancing Translational Sciences (NCATS), 2007).
